Our source for the binding values is PMC12785802.

Chains of the proteins cited; added tags and fusions are not shown.
UniProt P23769: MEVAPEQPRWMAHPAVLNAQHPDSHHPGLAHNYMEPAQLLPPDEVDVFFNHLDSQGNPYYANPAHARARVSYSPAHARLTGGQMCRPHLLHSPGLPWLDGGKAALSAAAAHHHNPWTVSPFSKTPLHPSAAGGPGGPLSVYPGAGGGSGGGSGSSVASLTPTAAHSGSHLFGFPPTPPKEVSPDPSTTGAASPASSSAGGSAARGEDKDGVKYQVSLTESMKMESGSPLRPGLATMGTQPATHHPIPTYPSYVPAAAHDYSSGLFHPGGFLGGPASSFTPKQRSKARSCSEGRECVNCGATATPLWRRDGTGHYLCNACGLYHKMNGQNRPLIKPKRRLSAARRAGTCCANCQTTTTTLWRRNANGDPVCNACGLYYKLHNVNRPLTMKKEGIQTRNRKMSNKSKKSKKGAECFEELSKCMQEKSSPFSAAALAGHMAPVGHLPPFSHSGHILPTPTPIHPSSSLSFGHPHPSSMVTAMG

Where a chain is given by its changes, count along the chain named. Names may count otherwise. Results are given in words; binding and its absence hold for the method and conditions named. Binding seen in cells or lysates may run through a third protein. Some binding calls cover weakened binding; strength is not graded here.

For this assay, the target named is GST-GATA2 fusion protein (full-length GATA2 fused to GST) (human) (UniProt P23769). As to the kind of experiment: pull-down; GST-GATA2 (or GST) on glutathione Sepharose 4B incubated with 35S-methionine-labeled in vitro translated POU1F1s; 150 mM NaCl, 20 mM Tris-HCl (pH 7.5), 1% Triton X-100, 1 mM dithiothreitol; 3 h at 4 °C, washed three times; SDS-PAGE and autoradiography; only the target purified.

B1: wild-type human POU1F1 (protein, UniProt P28069 1-291)
chain: MSCQAFTSADTFIPLNSDASATLPLIMHHSAAECLPVSNHATNVMSTATGLHYSVPSCHYGNQPSTYGVMAGSLTPCLYKFPDHTLSHGFPPIHQPLLAEDPTAADFKQELRRKSKLVEEPIDMDSPEIRELEKFANEFKVRRIKLGYTQTNVGEALAAVHGSEFSQTTICRFENLQLSFKNACKLKAILSKWLEEAEQVGALYNEKVGANERKRKRRTTISIAAKDALERHFGEQNKPSSQEIMRMAEELNLEKEVVRVWFCNRRQREKRVKTSLNQSLFSISKEHLECR
modifications: 35S-methionine-labeled
Take B1: the binding entry is reported as “binds”.

B2: human POU1F1 E230K mutant (protein, UniProt P28069 1-291)
chain: B1 chain with E230K
modifications: 35S-methionine-labeled
Take B2: the binding result is “binds”.

B3: human POU1F1 K216E mutant (protein, UniProt P28069 1-291)
chain: B1 chain with K216E
modifications: 35S-methionine-labeled
Regarding B3, the binding entry is listed as “binds”.

B4: human POU1F1 R172Q mutant (protein, UniProt P28069 1-291)
chain: B1 chain with R172Q
modifications: 35S-methionine-labeled
Consider B4, for which the binding result is “binds”.
